These are yes or no findings as the source states them, for the method shown. In cells and extracts the contact can be indirect. A yes stands for co-enrichment or nearness to the bait. Other partners may have been found.
Target: G9a (UniProt Q96KQ7)
Assay: affinity purification with mass spectrometry; proteins interacting with G9a identified by MS; cells and way of capture not stated

By UniProt entry, the sequences of proteins in these tests, tags left out.
UniProt Q96KQ7: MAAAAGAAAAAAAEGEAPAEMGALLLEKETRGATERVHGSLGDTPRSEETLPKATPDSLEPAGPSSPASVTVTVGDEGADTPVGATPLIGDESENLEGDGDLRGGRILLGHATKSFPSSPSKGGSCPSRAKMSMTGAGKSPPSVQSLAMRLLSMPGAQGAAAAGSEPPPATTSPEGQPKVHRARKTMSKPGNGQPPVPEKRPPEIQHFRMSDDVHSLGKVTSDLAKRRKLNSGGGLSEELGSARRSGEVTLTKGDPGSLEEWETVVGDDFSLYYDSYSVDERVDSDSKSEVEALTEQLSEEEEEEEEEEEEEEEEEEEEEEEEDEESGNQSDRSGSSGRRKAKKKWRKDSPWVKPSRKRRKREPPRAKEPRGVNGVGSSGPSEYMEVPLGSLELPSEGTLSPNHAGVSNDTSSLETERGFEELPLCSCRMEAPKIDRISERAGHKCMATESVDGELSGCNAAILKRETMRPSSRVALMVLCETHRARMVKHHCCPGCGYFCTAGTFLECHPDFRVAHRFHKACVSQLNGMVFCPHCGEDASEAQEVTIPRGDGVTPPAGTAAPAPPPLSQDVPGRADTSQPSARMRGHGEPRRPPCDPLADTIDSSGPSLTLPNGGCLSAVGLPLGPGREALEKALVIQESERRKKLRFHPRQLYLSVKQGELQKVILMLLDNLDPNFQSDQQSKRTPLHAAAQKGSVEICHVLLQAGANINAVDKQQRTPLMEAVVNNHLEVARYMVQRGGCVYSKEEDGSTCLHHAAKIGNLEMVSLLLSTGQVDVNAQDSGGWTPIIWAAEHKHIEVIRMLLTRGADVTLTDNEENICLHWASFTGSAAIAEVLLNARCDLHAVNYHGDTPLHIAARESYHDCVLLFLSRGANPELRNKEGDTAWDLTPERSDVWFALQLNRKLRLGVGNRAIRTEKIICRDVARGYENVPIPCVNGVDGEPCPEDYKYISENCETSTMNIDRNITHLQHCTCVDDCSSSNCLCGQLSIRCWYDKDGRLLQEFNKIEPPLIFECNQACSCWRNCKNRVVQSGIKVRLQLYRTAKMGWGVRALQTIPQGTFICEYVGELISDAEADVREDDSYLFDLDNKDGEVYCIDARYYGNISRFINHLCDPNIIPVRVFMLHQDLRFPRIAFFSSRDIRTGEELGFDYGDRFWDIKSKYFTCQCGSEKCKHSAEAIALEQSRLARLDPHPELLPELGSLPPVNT
UniProt O43524: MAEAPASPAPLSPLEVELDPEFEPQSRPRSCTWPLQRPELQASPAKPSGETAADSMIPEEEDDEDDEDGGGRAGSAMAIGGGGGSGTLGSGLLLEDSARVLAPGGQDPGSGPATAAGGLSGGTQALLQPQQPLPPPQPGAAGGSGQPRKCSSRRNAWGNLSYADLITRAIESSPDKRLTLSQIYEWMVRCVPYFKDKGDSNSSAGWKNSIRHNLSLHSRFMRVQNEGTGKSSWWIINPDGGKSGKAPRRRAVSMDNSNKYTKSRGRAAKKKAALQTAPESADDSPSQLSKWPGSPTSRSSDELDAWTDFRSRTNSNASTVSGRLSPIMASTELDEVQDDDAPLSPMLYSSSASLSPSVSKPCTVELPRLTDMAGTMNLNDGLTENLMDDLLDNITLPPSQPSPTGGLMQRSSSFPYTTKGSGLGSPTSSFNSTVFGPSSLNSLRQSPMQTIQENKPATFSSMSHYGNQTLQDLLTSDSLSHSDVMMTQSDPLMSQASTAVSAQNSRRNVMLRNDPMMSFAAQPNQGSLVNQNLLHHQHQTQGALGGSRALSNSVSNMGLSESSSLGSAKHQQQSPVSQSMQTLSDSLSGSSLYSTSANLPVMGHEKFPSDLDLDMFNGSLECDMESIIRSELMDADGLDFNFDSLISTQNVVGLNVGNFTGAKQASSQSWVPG

With FoxO3a (from UniProt O43524 1-673) the binding was “binds”.

From publication PMC12750793
